Results as given in the supplement of paper PMC10849652.
Some of the results follow.

By UniProt entry, the sequences of proteins in these tests, tags left out. Where a name states a change or a piece, a line headed by the entry shows the natural chain unless it says otherwise.
UniProt O60337: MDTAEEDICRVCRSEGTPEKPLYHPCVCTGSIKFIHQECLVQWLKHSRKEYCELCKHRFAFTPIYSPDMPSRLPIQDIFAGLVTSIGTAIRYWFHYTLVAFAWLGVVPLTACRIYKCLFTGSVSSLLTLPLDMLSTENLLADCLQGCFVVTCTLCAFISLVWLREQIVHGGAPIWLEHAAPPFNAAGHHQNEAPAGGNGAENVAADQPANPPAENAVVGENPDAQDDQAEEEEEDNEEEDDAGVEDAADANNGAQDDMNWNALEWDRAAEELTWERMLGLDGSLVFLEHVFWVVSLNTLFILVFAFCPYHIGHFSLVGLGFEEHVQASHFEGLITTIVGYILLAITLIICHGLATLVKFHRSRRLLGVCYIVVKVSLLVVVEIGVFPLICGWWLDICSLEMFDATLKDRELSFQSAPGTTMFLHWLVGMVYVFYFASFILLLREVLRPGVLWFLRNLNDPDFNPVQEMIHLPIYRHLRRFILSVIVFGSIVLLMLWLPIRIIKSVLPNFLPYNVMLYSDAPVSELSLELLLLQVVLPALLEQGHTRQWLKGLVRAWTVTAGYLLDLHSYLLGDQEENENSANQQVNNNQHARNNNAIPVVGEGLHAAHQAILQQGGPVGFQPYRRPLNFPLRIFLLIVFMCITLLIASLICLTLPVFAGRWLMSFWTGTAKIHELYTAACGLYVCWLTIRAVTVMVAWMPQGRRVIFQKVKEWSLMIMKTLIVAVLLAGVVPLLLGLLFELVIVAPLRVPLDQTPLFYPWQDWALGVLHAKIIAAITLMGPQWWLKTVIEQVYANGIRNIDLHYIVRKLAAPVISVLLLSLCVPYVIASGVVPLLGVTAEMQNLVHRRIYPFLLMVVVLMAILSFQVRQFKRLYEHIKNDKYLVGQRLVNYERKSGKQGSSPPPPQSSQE
UniProt Q9Y333: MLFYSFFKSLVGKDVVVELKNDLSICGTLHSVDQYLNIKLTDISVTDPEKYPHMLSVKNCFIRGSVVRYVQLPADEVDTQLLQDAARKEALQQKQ
UniProt P20645: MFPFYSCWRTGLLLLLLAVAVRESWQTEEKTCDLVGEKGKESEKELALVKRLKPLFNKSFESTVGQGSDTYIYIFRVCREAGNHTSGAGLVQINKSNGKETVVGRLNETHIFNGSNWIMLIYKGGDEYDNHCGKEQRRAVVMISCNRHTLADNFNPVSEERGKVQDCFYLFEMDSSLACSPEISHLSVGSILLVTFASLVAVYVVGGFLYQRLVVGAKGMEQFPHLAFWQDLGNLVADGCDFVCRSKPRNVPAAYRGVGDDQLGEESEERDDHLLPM
UniProt P27816: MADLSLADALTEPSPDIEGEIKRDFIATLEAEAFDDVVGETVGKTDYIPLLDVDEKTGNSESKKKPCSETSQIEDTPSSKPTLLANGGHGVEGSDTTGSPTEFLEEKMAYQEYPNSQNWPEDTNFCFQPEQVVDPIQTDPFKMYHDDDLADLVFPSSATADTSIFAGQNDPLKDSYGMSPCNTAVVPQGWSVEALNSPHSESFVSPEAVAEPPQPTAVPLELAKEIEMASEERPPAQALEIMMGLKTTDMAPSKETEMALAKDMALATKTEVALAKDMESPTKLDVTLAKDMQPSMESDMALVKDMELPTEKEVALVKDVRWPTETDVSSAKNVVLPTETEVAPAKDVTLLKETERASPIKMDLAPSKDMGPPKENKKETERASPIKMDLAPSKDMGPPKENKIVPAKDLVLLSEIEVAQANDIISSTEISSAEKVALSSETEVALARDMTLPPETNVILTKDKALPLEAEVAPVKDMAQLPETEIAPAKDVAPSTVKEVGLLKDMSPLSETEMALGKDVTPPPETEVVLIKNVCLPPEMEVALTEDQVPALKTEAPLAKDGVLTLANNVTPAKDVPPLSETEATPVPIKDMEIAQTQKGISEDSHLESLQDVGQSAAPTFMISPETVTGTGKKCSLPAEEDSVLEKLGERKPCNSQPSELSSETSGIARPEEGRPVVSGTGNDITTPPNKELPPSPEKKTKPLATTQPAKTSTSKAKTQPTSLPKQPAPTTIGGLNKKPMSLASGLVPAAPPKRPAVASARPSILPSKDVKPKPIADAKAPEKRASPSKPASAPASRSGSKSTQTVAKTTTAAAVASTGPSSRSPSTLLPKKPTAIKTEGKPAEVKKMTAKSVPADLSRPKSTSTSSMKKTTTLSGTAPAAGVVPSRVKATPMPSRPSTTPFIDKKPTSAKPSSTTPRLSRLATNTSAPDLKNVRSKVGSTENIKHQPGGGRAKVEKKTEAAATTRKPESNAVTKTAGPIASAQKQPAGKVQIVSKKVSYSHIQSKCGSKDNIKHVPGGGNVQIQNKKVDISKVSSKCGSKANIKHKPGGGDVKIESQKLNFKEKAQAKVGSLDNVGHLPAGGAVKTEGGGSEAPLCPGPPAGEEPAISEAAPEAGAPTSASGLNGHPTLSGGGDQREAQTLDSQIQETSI
UniProt Q9BX40: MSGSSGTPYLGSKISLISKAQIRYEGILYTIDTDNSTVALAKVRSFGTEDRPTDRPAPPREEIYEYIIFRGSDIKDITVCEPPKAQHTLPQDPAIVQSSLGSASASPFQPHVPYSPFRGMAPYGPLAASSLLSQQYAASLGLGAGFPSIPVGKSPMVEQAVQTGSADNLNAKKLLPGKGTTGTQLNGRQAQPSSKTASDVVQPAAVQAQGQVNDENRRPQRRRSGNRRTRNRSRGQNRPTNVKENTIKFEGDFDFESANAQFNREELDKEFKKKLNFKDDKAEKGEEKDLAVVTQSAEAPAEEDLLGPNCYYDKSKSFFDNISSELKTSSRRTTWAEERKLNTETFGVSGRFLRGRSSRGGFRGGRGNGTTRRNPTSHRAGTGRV
UniProt O15116: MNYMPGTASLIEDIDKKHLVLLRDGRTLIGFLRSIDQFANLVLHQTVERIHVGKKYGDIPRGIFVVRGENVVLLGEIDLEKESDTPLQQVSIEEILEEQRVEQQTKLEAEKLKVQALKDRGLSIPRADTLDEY
UniProt Q9UK45: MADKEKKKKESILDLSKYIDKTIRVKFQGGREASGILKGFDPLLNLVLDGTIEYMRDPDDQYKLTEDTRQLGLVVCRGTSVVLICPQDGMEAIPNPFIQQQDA
UniProt Q8IWT6: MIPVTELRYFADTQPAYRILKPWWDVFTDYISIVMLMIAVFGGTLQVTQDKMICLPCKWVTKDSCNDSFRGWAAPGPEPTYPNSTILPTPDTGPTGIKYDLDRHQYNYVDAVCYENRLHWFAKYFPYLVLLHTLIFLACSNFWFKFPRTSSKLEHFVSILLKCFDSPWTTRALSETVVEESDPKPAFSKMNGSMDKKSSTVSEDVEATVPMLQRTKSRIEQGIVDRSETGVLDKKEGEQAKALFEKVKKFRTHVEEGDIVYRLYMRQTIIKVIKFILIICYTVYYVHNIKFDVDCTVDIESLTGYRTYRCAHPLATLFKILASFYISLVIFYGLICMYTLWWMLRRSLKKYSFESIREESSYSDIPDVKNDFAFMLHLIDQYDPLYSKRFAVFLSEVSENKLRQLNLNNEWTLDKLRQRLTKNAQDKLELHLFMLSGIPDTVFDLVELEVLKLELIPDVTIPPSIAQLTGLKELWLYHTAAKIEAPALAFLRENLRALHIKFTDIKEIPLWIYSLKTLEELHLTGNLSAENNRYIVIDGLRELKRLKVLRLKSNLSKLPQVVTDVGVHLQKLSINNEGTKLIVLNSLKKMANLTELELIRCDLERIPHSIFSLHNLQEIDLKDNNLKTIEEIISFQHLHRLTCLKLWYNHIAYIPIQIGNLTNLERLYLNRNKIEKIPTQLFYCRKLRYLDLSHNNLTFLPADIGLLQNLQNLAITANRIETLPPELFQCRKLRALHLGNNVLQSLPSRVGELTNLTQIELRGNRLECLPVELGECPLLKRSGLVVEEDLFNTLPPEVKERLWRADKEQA
UniProt Q5U5X0: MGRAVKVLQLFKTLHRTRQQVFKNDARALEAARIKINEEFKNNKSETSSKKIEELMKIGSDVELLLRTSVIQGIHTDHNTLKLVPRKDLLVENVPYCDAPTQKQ
UniProt Q16539, whole entry, looked up: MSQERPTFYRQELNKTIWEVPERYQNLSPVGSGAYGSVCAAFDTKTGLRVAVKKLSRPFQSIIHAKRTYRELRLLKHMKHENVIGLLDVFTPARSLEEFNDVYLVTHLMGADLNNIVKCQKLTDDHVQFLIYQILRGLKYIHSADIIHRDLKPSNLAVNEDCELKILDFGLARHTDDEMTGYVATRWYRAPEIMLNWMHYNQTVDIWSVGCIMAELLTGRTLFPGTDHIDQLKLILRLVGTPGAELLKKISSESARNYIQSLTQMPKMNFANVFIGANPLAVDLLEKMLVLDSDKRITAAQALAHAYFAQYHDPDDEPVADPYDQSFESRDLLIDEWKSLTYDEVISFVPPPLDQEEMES
UniProt Q9Y2E5: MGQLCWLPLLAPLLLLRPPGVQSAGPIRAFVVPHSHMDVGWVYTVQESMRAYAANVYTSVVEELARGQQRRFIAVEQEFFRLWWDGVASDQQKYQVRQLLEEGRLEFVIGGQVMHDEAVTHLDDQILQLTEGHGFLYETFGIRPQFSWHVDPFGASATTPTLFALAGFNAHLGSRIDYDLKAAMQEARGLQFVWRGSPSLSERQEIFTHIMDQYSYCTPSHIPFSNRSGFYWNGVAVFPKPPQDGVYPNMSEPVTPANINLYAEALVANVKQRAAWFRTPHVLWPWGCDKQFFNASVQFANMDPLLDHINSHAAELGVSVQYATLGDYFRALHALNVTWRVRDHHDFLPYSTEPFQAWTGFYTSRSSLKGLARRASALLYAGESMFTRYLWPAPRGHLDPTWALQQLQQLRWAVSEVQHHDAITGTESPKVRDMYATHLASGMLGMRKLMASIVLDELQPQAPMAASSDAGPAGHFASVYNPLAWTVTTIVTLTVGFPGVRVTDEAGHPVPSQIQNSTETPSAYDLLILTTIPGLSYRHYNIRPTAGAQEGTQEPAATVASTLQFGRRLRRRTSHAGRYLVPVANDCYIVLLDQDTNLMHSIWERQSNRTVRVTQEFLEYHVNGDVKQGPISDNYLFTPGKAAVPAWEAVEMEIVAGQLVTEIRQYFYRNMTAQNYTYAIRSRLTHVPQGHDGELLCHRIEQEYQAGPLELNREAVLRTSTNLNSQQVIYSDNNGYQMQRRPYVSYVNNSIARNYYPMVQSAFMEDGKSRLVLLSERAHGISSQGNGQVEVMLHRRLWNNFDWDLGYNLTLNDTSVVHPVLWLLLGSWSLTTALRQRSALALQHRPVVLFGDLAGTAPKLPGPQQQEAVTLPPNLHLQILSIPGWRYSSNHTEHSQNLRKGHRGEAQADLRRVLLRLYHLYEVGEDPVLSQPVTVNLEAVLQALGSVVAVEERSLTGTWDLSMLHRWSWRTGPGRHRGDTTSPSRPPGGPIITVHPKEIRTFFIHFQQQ
UniProt P36941: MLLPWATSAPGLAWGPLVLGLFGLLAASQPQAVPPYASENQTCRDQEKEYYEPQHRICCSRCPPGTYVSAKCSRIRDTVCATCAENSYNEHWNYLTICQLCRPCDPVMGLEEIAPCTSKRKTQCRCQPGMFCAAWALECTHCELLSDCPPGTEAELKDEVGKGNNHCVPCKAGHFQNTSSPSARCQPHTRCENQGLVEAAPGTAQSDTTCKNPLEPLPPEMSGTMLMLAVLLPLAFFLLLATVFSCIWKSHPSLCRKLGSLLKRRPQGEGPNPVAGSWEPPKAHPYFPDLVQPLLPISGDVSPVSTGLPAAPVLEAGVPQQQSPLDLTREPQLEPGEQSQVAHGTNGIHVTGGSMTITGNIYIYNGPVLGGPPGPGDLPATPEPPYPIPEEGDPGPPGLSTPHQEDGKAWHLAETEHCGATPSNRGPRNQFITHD
UniProt P46734: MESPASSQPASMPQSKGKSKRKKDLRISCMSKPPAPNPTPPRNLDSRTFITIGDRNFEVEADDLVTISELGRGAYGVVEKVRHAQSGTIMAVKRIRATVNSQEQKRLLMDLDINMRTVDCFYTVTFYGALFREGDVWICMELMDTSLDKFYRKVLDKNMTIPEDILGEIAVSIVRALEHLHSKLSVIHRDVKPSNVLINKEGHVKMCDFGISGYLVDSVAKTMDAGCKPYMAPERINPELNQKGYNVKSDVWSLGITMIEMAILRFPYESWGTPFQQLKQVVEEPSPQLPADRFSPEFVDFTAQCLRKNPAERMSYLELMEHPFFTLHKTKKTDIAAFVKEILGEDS
UniProt O95372: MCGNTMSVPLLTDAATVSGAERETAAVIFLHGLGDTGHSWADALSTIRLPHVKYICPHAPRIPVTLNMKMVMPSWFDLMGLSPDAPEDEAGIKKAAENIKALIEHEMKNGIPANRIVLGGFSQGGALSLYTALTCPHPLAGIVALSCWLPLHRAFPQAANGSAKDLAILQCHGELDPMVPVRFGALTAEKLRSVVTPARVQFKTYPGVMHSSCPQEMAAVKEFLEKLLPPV
UniProt Q13257, whole entry, looked up: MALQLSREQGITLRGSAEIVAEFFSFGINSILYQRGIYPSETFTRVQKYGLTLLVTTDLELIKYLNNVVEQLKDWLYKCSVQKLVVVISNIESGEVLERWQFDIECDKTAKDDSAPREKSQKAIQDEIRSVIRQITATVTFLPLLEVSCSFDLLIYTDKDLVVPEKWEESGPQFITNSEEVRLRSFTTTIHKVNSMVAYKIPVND

Tests used:
Assay in all cases: log2 fold change, soluble protein after heating vs DMSO (PISA); higher = thermal stabilisation; K562 cells, 10 uM, 30 min; active = over 0.2 and 3.5 SD of the protein, either way, in both replicates (recomputed)
[1] = compound: C#Cc1cccc(Nc2ncnc3cc(OCCOC)c(OCCOC)cc23)c1 [erlotinib]
In short: (§1)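 Values are thermal stability changes relative to control samples and are taken from duplicates. They are stated as log2 fold changes. Before quantification by TMTpro 16plex LC-MS/MS with equalised channel sums, K562 cells at 2×10^6 cells/mL were treated with 10 μM compound for 30 min, heated in aliquots for 3 min across 48°C-58°C, pooled, extracted in PBS with 0.5% NP-40 at 4°C, and centrifuged at 21,000xg for 90 min to give the soluble supernatant.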

[2] = compound: C/C(=N\NC(=O)C1=CC(=CC=C1)S(=O)(=O)N2CCOCC2)/C3=C(C=CC(=C3)Cl)O
In short: as §1

[3] = compound: C1=CC(=C(C=C1Cl)C2=NC3=NC=CN=C3C(=N2)NC4=CC=NC=C4)F
In short: as §1

[4] = compound: C1=CC(=CC=C1C2=NC3=C(N2)C=C(C=C3)C(=O)N)OC4=CC=C(C=C4)Cl
In short: as §1

[5] = compound: C1=CC2=C(C=CC(=C2)/C=C\3/C(=O)NC(=NCC4=CC=CS4)S3)N=C1
In short: as §1

[6] = compound: C1=CC2=NC=CN=C2C=C1/C=C/3\C(=O)NC(=O)S3
In short: as §1

[7] = compound: C1=CC=C(C=C1)C2=NC(=C(N2)C3=CC=NC=C3)C4=CC(=C(C=C4)Cl)O
In short: as §1

[8] = compound: C1=CC=C2C(=C1)C3=NNC4=CC=CC(=C43)C2=O
In short: as §1

[9] = compound: C1CCN(C1)C(=O)NC2=CC=CC(=C2)NC3=NC=C(C(=N3)NCCC4=CN=CN4)Br
In short: as §1

[10] = compound: C1CN(CCC1(CC2=CC=C(C=C2)Cl)N)C3=NC=NC4=C3C=CN4
In short: as §1

Target	log2 fold change [1]	log2 fold change [2]	log2 fold change [3]	log2 fold change [4]	log2 fold change [5]	log2 fold change [6]	log2 fold change [7]	log2 fold change [8]	log2 fold change [9]	log2 fold change [10]
MARCHF6 (UniProt O60337)	inactive: -0.029	inactive: 0.004	inactive: 0.067	inactive: 0.044	inactive: 0.104	inactive: 0.033	inactive: -0.068	inactive: -0.116	inactive: -0.033	inactive: 0.018
LSM2 (UniProt Q9Y333)	inactive: -0.051	inactive: 0.088	inactive: 0.06	inactive: -0.006	inactive: 0.009	inactive: 0.048	inactive: 0.062	inactive: 0.015	inactive: -0.009	inactive: 0.01
MAGEB2 (UniProt O15479)	inactive: -0.125	inactive: -0.25	inactive: -0.182	inactive: 0.078	inactive: -0.052	inactive: -0.041	inactive: -0.074	inactive: -0.116	inactive: 0.191	inactive: 0.205
M6PR (UniProt P20645)	inactive: -0.007	inactive: 0.011	inactive: 0.062	inactive: 0.015	inactive: -0.123	inactive: -0.044	inactive: -0.004	inactive: 0.003	inactive: -0.006	inactive: 0.048
MARS (UniProt P56192)	inactive: 0.026	inactive: -0.009	inactive: -0.044	inactive: 0.01	inactive: 0.048	inactive: 0.023	inactive: 0.001	inactive: -0.017	inactive: 0.019	inactive: -0.041
MAP4 isoform 5 (UniProt P27816)	inactive: 0.056	inactive: -0.214	inactive: 0.038	inactive: -0.067	inactive: -0.031	inactive: -0.116	inactive: -0.051	inactive: 0.152	–	–
MARCKSL1 (UniProt P49006)	inactive: -0.001	inactive: 0.072	inactive: -0.047	inactive: -0.02	inactive: -0.031	inactive: -0.039	inactive: -0.015	inactive: -0.063	inactive: -0.005	inactive: 0.039
MAPK9 (UniProt P45984)	inactive: 0.007	inactive: 0.027	inactive: 0.031	inactive: -0.02	inactive: 0	inactive: -0.02	inactive: -0.026	inactive: 0.202	inactive: 0.063	inactive: 0.016
LSM14B (UniProt Q9BX40)	inactive: -0.101	inactive: -0.038	inactive: -0.001	inactive: 0.02	inactive: 0.062	inactive: -0.058	inactive: -0.057	inactive: 0.024	inactive: 0.021	inactive: -0.15
LTF (UniProt P02788)	inactive: -0.143	inactive: -0.152	inactive: 0.045	inactive: 0.098	inactive: -0.06	inactive: -0.007	inactive: -0.03	inactive: -0.221	inactive: 0.235	inactive: 0.257
LSM1 (UniProt O15116)	inactive: -0.041	inactive: 0.037	inactive: 0.019	inactive: 0.059	inactive: 0.03	inactive: -0.044	inactive: -0.048	inactive: -0.024	inactive: -0.015	inactive: 0.028
MARK2 (UniProt E9PC69)	inactive: 0.12	inactive: 0.091	inactive: 0.043	inactive: -0.042	inactive: 0.115	inactive: -0.1	inactive: -0.014	active: -0.756	inactive: -0.227	inactive: -0.126
LSM7 (UniProt Q9UK45)	inactive: 0.026	inactive: 0	inactive: 0.062	inactive: -0.032	inactive: 0.068	inactive: 0.076	inactive: 0.01	inactive: -0.042	inactive: 0.017	inactive: -0.013
LRRC8A (UniProt Q8IWT6)	inactive: 0.034	inactive: -0.123	inactive: -0.172	inactive: 0.037	inactive: 0.048	inactive: 0.036	inactive: 0.004	inactive: 0.004	inactive: -0.068	inactive: -0.057
MAP1B (UniProt P46821)	inactive: -0.013	inactive: -0.051	inactive: -0.04	inactive: -0.024	inactive: -0.006	inactive: 0.004	inactive: -0.018	inactive: -0.014	inactive: -0.031	inactive: -0.044
LYRM7 (UniProt Q5U5X0)	inactive: 0.008	inactive: 0.018	inactive: 0.012	inactive: -0.021	inactive: 0.051	inactive: -0.059	inactive: 0.053	inactive: 0.011	inactive: -0.03	inactive: -0.018
MAPK14 isoform 2 (UniProt Q16539)	inactive: 0.313	inactive: -0.051	active: 0.936	inactive: -0.136	inactive: 0.01	inactive: -0.013	active: 1	inactive: 0.207	inactive: 0.021	inactive: -0.102
MAP3K20 (UniProt Q9NYL2)	inactive: 0.014	inactive: -0.013	inactive: -0.009	inactive: 0.043	inactive: -0.009	inactive: 0.038	inactive: -0.011	inactive: -0.106	inactive: -0.046	inactive: -0.036
LUC7L (UniProt Q9NQ29)	inactive: -0.084	inactive: 0.043	inactive: -0.092	inactive: 0.114	inactive: -0.062	inactive: -0.003	inactive: -0.105	inactive: -0.016	inactive: -0.016	inactive: -0.035
LYPLAL1 (UniProt Q5VWZ2)	inactive: -0.014	inactive: 0.051	inactive: 0.074	inactive: 0.01	inactive: 0.026	inactive: 0.057	inactive: 0.041	inactive: 0.017	inactive: -0.006	inactive: 0.006
MAN2B2 (UniProt Q9Y2E5)	inactive: -0.035	inactive: 0.005	inactive: -0.008	inactive: -0.003	inactive: 0.076	inactive: 0.025	inactive: -0.07	inactive: 0.063	inactive: -0.02	inactive: -0.186
LTBR (UniProt P36941)	inactive: 0.012	inactive: -0.145	inactive: 0.254	inactive: -0.035	inactive: -0.074	inactive: 0.01	inactive: -0.183	inactive: -0.033	inactive: 0.043	inactive: 0.187
LYPLA1 (UniProt O75608)	inactive: -0.04	inactive: 0.032	inactive: 0.132	inactive: 0.012	inactive: 0.076	inactive: 0.009	inactive: 0.057	inactive: -0.022	inactive: -0.011	inactive: 0.004
MAP2K1 (UniProt Q02750)	inactive: -0.012	inactive: 0.001	inactive: 0.037	inactive: -0.001	inactive: 0.074	inactive: 0.014	inactive: -0.028	inactive: -0.005	inactive: -0.002	inactive: -0.003
MACF1 (UniProt Q9UPN3)	inactive: -0.001	inactive: 0.055	inactive: -0.104	inactive: 0.001	inactive: 0	inactive: 0.04	inactive: -0.02	inactive: -0.005	inactive: -0.066	inactive: -0.095
MAP2K3 isoform 3 (UniProt P46734)	inactive: -0.011	inactive: 0.05	inactive: 0.002	inactive: 0.009	inactive: 0.036	inactive: 0.017	inactive: 0.046	inactive: -0.057	inactive: 0.016	inactive: -0.006
LYPLA2 (UniProt O95372)	inactive: -0.008	inactive: 0.021	active: 0.345	inactive: -0.01	inactive: 0.081	inactive: 0.097	inactive: 0.14	inactive: -0.016	inactive: -0.084	inactive: -0.122
MAP2K2 (UniProt P36507)	inactive: 0.021	inactive: -0.005	inactive: 0.05	inactive: -0.001	inactive: 0.054	inactive: -0.005	inactive: -0.058	inactive: -0.029	inactive: -0.003	inactive: 0.016
MAD2L1 (UniProt Q13257)	inactive: -0.01	inactive: 0.056	inactive: 0.029	inactive: -0.052	inactive: 0.033	inactive: 0.056	inactive: -0.009	inactive: 0.007	inactive: 0.01	inactive: -0.032
MADD isoform 2 (UniProt Q8WXG6)	inactive: 0.06	inactive: -0.008	inactive: -0.147	inactive: 0	inactive: 0.057	inactive: -0.043	inactive: 0.023	inactive: -0.104	inactive: 0.012	inactive: -0.041

Complete entries, quoted from the list. Order of values: log2 fold change [1] | log2 fold change [2] | log2 fold change [3] | log2 fold change [4] | log2 fold change [5] | log2 fold change [6] | log2 fold change [7] | log2 fold change [8] | log2 fold change [9] | log2 fold change [10]
LTF (UniProt P02788) as listed: inactive: -0.143 | inactive: -0.152 | inactive: 0.045 | inactive: 0.098 | inactive: -0.06 | inactive: -0.007 | inactive: -0.03 | inactive: -0.221 | inactive: 0.235 | inactive: 0.257
LSM7 (UniProt Q9UK45) as listed: inactive: 0.026 | inactive: 0 | inactive: 0.062 | inactive: -0.032 | inactive: 0.068 | inactive: 0.076 | inactive: 0.01 | inactive: -0.042 | inactive: 0.017 | inactive: -0.013
